Among the data in article doi:10.1101/2023.01.25.525625 are binding values, retold here.

Substitutions are numbered along the chain they refer to. Results are given in words; binding and its absence hold for the method and conditions named. Binding can be weak; no strength is given. For some of these results: In cells and extracts the contact can be indirect. For some of these results: Sequences can lack the tags named with a protein.

The target of the first assay is T1, GFP-StREM1.3 (Solanum tuberosum) (UniProt P93788).
T1 sequence: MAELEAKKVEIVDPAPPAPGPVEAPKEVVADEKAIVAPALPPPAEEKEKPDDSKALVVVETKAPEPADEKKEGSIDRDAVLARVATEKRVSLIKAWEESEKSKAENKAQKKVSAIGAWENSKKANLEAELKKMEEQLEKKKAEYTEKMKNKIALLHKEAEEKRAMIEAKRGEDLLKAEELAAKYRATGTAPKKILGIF
The experiment in a line: co-IP.
Turning to “RFP-StADF2 (Solanum tuberosum actin depolymerizing factor 2)”, the binding entry is “binds”.

The target of a further assay is T2, StREM1.3^(S74D T86D S91D) phosphomimic variant, split-ubiquitin yeast two-hybrid bait (Solanum tuberosum) (UniProt P93788).
T2 sequence: T1 sequence with S74D, T86D, S91D
The experiment in a line: two-hybrid.
With “Autophagy 8i (NbATG8i) (Nicotiana benthamiana)”, the binding result is given as “binds”.
The same measure, in the same setting: with “Delta tonoplast integral protein (NbTIP2;1) (Nicotiana benthamiana)” the entry was “binds”; with “Plasma membrane intrinsic protein 1C (NbPIP1C) (Nicotiana benthamiana)”, “binds”.
On the same count and under the same terms, with “Calreticulin 3 (NbCRT3) (Nicotiana benthamiana)” the entry was “binds”.
Consider “Metallothionein 2B (NbMT2B) (Nicotiana benthamiana)”, for which the binding result is recorded as “binds”.
Still for that read-out and setting: with “N. benthamiana Actin Depolymerizing Factor 3 (NbADF3) (Nicotiana benthamiana)” the entry was “binds”.
